Reference: PubChem BioAssay AID652054 (National Center for Advancing Translational Sciences (NCATS), 2013)
About 9,100 (2.5%) of roughly 360,000 compounds were called active. The inconclusive results got no clear call from the source; some entries with a clear call stand among them for comparison. Cut-off read from the data, not from the text of the source: active = max response below about -50%; inconclusive = no clear call, values can overlap the other calls; inactive = above that.

Amino acid sequences for entries named in this document (tags omitted).
UniProt P35462, whole entry, looked up: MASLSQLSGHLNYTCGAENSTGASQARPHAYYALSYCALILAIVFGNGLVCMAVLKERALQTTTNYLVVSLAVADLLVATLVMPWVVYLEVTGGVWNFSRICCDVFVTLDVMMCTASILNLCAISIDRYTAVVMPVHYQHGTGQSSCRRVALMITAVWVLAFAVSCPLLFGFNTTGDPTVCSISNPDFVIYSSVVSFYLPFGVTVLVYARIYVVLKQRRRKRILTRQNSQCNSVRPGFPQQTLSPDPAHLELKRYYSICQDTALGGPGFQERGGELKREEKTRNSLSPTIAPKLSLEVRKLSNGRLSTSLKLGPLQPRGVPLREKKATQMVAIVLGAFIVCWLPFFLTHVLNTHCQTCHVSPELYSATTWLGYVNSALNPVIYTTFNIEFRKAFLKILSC

Each compound was assayed against D(3) dopamine receptor (Homo sapiens) (UniProt P35462) (assay: qHTS of D3 Dopamine Receptor Antagonist: qHTS). Conditions: D3R cells, DiscoveRx beta-arrestin luminescence, antagonist mode; hits give low values.
Summary of the method: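 Cells plated overnight at 1500 cells/well, then exposed to library compounds with dopamine controls for 90 minutes at 37 degrees C. DiscoveRx reagent added for 30–60 minutes at room temperature; luminescence read, quantitative HTS format.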
% is set by controls: 0 for no effect and ±100 for the full control effect.

Row | SMILES | max response, negative = inhibition
1 | CN(C)CCCNc1nc2cc(-c3ccn[nH]3)sc2c(=O)n1C | inconclusive: -33.1%
2 | COc1ccc(CCN2CCCC(CN(C)Cc3cccc(OC)c3)C2)cc1 (stereo not drawn) | inactive: 7.04%
3 | CCC(=O)Nc1nc2ccccc2n1CCN(C)C | active: -81.2%
4 | COc1ccc(-n2c(=S)[nH]c3cc(C(=O)Nc4ccc(C)c(F)c4)ccc3c2=O)c(OC)c1 | inconclusive: -47%
5 | CCOC(=O)N1CCC(NC(=O)c2ccc3c(c2)N(CC)CCS3)CC1 | inconclusive: -36.8%
6 | CCOC(=O)Cc1nnc(NC(=O)c2ncn[nH]2)s1 | inconclusive: -48.4%
7 | COc1ccccc1N1CCN(CC(=O)Nc2ccc(CN3CCCCC3)cc2)CC1 | active: -65.5%
8 | CCCS(=O)(=O)NC(=O)C1(C)CCCN(C(=O)c2nc(C)oc2C)C1 (stereo not drawn) | inconclusive: -41.5%
9 | CC1OC(CC(=O)O)CC2=C1C(=O)c1c(O)cccc1C2=O (stereo not drawn) | active: -94%
10 | CN(C)CCCN1c2ccccc2CCc2ccccc21 | inactive: 0%
11 | Cc1cccc(C(=O)NCN2CCN(c3ccccc3C#N)CC2)c1 | active: -76.4%
12 | CCOC(=O)Cc1nnc2c(Nc3ccc(Cl)cc3)nc3nonc3n12 | inconclusive: -35.6%
13 | CCCn1c(SCC(=O)c2cc(OC)ccc2OC)nnc1C(C)C | inconclusive: -45.2%
14 | O=C(NCc1ccco1)C1(c2ccc(Cl)cc2)CCCC1 | inactive: -5.37%
15 | CCOc1cc(/C=N/Nc2nc3ccccc3[nH]2)cc(Br)c1OCC(=O)N(C)C | inactive: 0.808%
16 | Cc1ccc2c(c1)C1CN(C)CCC1N2Sc1ccccc1[N+](=O)[O-] (stereo not drawn) | inconclusive: -45.2%
17 | CC1=C(C(=O)N(C(C)C)C(C)C)CC(CC(=O)NC2CCCC2)C(=O)N1Cc1ccc(C(C)(C)C)cc1 (stereo not drawn) | inconclusive: -34.6%
18 | COc1ccc2nc3n(c(=O)c2c1)-c1cc2ccccc2cc1C(=O)NC3Cc1ccc(O)cc1 (stereo not drawn) | inactive: -30%
19 | CCC(C)(C)C1CCC(=NNC(=S)Nc2ccccc2)CC1 (stereo not drawn) | inconclusive: -46.2%
20 | COc1ccc(Nc2oc(-c3ccco3)nc2S(=O)(=O)c2ccc(F)cc2)cc1 | inactive: -3.41%

Look-ups from above:
`CN(C)CCCN1c2ccccc2CCc2ccccc21` | max response, negative = inhibition: inactive: 0%
`O=C(NCc1ccco1)C1(c2ccc(Cl)cc2)CCCC1` | max response, negative = inhibition: inactive: -5.37%
`CCC(C)(C)C1CCC(=NNC(=S)Nc2ccccc2)CC1` (stereo not drawn) | max response, negative = inhibition: inconclusive: -46.2%
`COc1ccc(Nc2oc(-c3ccco3)nc2S(=O)(=O)c2ccc(F)cc2)cc1` | max response, negative = inhibition: inactive: -3.41%

Continued.

Row | SMILES | max response, negative = inhibition
21 | N#CCc1ccc(NC(=O)c2ccc(CN3CCc4ccccc4C3)cc2)cc1 | active: -53.3%
22 | COc1cccc(C(=O)NC2CCN(CC(=O)NCc3ccccc3F)CC2)c1 | inconclusive: -45.1%
23 | CCC(C)NC(=O)Cn1cnc2sc(C)cc2c1=O (stereo not drawn) | inconclusive: -44.4%
24 | CCCCN(C(=O)c1cc(S(=O)(=O)N2CCOCC2)ccc1N1CCOCC1)c1ccccc1 | inconclusive: -47%
25 | CCOC(=O)/C=C/C(=O)Nc1ccc(S(=O)(=O)Nc2c(C)cc(C)cc2C)cc1 | inconclusive: -46%
26 | COCc1cc(C)nc(SCC(=O)Nc2ccc3c(c2)OCO3)c1C#N | inactive: -4.32%
27 | Cn1cc(C(=O)N/N=C/c2ccc(Br)c([N+](=O)[O-])c2)c2ccccc21 | active: -67.1%
28 | CCn1c(SCC(=O)c2ccc3c(c2)OCCO3)nnc1C(C)C | inconclusive: -46.9%
29 | O=C(/C=C/c1ccc(F)cc1)c1ccccc1Br | inconclusive: -42%
30 | CN(C)C(=O)c1ccc(COc2ccccc2Br)o1 | inconclusive: -38.5%
31 | COCCn1nnnc1C(c1cccc(C(F)(F)F)c1)N1CCN(Cc2ccccc2)CC1 (stereo not drawn) | inconclusive: -35.7%
32 | CC(C)(C=O)C1=CC(=O)c2ccccc2C1=O | active: -111%
33 | C(=N\n1cnnc1)/c1ccc(-c2ccccc2)cc1 | inconclusive: -49%
34 | COc1ccc(CCNc2nc(N3CCCCC3)nc(N3CCCCC3)n2)cc1OC | inconclusive: -37.1%
35 | c1coc(C2=NC(c3ccco3)C(c3ccco3)N2)c1 (stereo not drawn) | inconclusive: -35.5%
36 | O=C(/C=C/c1ccccc1)NNC1=NS(=O)(=O)c2ccccc21 | inactive: 11%
37 | O=C(O)c1cccc(N/C(=N\S(=O)(=O)c2ccccc2)c2ccccc2)c1 | inconclusive: -35.4%
38 | N#Cc1cccc(NC(=O)c2ccccc2C(=O)O)c1 | inconclusive: -43.8%
39 | Cc1[nH][nH]c(=O)c1C(c1c(C)[nH][nH]c1=O)c1cn(Cc2ccc(F)cc2)c2ccccc12 | inconclusive: -36.8%
40 | COc1ccc2c(CN3CCN(c4ccccc4OC)CC3)cc(=O)oc2c1 | inconclusive: -30.8%

Row | SMILES | max response, negative = inhibition
41 | CC(C)Cn1c(/C=N/Nc2nc3ccccc3[nH]2)nc2ccccc21 | active: -70.8%
42 | O=C(/C=C/c1ccccc1[N+](=O)[O-])c1ccccc1Br | inconclusive: -36.3%
43 | CCOC(=O)C1Nc2c(F)cc(C)cc2C2c3ccccc3CC12 (stereo not drawn) | active: -53.9%
44 | CC(=O)Nc1ccc(OCC(O)CN2CCN(c3ccccc3Cl)CC2)cc1 (stereo not drawn) | active: -66.4%
45 | COc1ccccc1Cc1c(-c2ccc(Cl)cc2)nc2ccc(Cl)cn12 | inactive: 6.17%
46 | CCOC(=O)C(NC(=O)c1ccccc1)(OCC1(CC)COC1)C(F)(F)F (stereo not drawn) | inconclusive: -39.6%
47 | CCOC(=O)c1ccc(N2C(=O)C=CC2=O)cc1 | active: -81.7%
48 | CCN(Cc1ccccc1)S(=O)(=O)c1ccc(C(=O)N(CCCN(C)C)c2nc3c(C)c(C)ccc3s2)cc1 | inactive: -9.85%
49 | CN1C(=O)N(c2nnc(C(C)(C)C)s2)C(=O)C1c1ccccc1 (stereo not drawn) | inconclusive: -36.6%
50 | Cc1cc(C)c(C)c(S(=O)(=O)N2CCCN(C)CC2)c1C | inactive: -23.9%
51 | CC1(C(=O)Nc2cnc3ccccc3c2)CCN1C(=O)CCc1ccccc1 (stereo not drawn) | inactive: 0%
52 | c1ccc(CN2CCC(CNc3ncnc4ccccc34)C2)cc1 (stereo not drawn) | active: -63.6%
53 | CCc1c(C)c2ccc(O)c(CN3CCCC3)c2oc1=O | inactive: -15.3%
54 | C=C(C(=O)c1ccccc1)C(c1ccccc1)C(C)C(=O)c1ccccc1 (stereo not drawn) | inactive: -20.1%
55 | COc1ccc(CNc2ncnc3cc(OC)c(OC)cc23)cc1OC | inconclusive: -42.1%
56 | Cc1cccc(CN2CCC(CNC(=O)Nc3ccc(F)c(Cl)c3)CC2)c1 | active: -60.2%
57 | CCc1ccc(NC(=O)NCC2CCN(Cc3cccc(Cl)c3)CC2)cc1 | active: -52.4%
58 | COc1ccc(-c2ccccc2)c2oc(-c3ccco3)cc(=O)c12 | inactive: 72.1%
